Measurements from PubChem BioAssay AID310 (DTP/NCI, 2004).
The list does not hold the whole screen: it covers a few groups of compounds. Other doses and runs of a compound may be missing. T/C: endpoint of the treated group in % of that of the vehicle group. Schedules are NCI's codes, read here as Q, the interval in days (D) or hours (H), X, the number of doses. Some T/C values carry the count of animals alive at the toxicity check; without a count or a note in brackets, all were alive then. Some doses were run more than once; their values stand side by side, smallest first. Some T/C values are marked as having no survivor count here; that says nothing about deaths at the dose. Some doses have a count of surviving animals in place of a T/C: the source files T/C as zero there, which appears to mark a toxic dose or a test without result, not a measured value. Survivors were counted at the toxicity check; its day is shown where the source gives one, and later deaths do not show.

Tested on: C3AKF1 mice, osteogenic sarcoma HE10734 s.c., tumor weight T/C
Assay: NCI In Vivo Anticancer Drug Screen. Data for tumor model Osteogenic Sarcoma HE 10734 (subcutaneous) in C3AKF1 (CHKRF1) mice
Conditions: T/C endpoint: mean tumor weight, schedule: Q01DX010 (ip), higher T/C = larger tumour
Procedure: The antitumor activity of compounds was measured in mice bearing transplantable tumors. Survival or tumor size were measured and the results are expressed as the measurement made in the treated group (T) divided by the measurement made in the vehicle treated control group (C). The tumor model used in this assay is Osteogenic Sarcoma HE 10734 (subcutaneous) in C3AKF1 (CHKRF1) mice

[1] = dose: 5.0 mg/kg/injection, vehicle: saline, evaluated on day 20
[2] = dose: 10.0 mg/kg/injection, vehicle: saline, evaluated on day 20
[3] = dose: 20.0 mg/kg/injection, vehicle: saline, evaluated on day 20
[4] = dose: 20.0 mg/kg/injection, vehicle: saline
[5] = dose: 30.0 mg/kg/injection, vehicle: saline
[6] = dose: 30.0 mg/kg/injection, vehicle: saline, evaluated on day 20

N/C(=N\[N+](=O)[O-])N(CCO[N+](=O)[O-])N=O
T/C (dose: 30.0 mg/kg/injection, vehicle: carboxymethylcellulose (CMC), evaluation day not shown): 123 % of control [survivor count not shown]
T/C (dose: 45.0 mg/kg/injection, vehicle: carboxymethylcellulose (CMC), evaluation day not shown): 122 % of control [survivor count not shown]

BrCc1cccc(CBr)c1
T/C (dose: 2.5 mg/kg/injection, vehicle: saline, evaluated on day 20): 120 % of control
T/C [1]: 67 % of control
T/C [2]: 43 % of control
T/C [3]: 104 % of control [5 of 6 alive]
survivor count [4]: 0 of 6
survivor count [5]: 0 of 6
survivor count (dose: 45.0 mg/kg/injection, vehicle: saline): 0 of 6
survivor count (dose: 70.0 mg/kg/injection, vehicle: saline): 0 of 6

O[C@H](CNCCCl)[C@H](O)CNCCCl
T/C (dose: 4.5 mg/kg/injection, vehicle: saline, evaluated on day 20): 77 % of control
T/C (dose: 9.0 mg/kg/injection, vehicle: saline, evaluated on day 20): 78 % of control
T/C (dose: 18.0 mg/kg/injection, vehicle: saline, evaluated on day 20): 42 % of control
survivor count (dose: 36.0 mg/kg/injection, vehicle: saline): 3 of 6

CCOC(=O)COc1ccc(N(CCCl)CCCl)cc1
T/C [1]: 74 % of control
T/C [2]: 17 % of control
survivor count [4]: 0 of 7
survivor count (dose: 40.0 mg/kg/injection, vehicle: saline): 0 of 7

O[C@H](CNCCBr)[C@@H](O)CNCCBr
T/C (dose: 1.0 mg/kg/injection, vehicle: carboxymethylcellulose (CMC), evaluated on day 20): 62 % of control
T/C (dose: 2.0 mg/kg/injection, vehicle: carboxymethylcellulose (CMC), evaluated on day 20): 87 % of control
survivor count (dose: 4.0 mg/kg/injection, vehicle: carboxymethylcellulose (CMC)): 1 of 7
survivor count (dose: 8.0 mg/kg/injection, vehicle: carboxymethylcellulose (CMC)): 0 of 7

NC(Cc1ccc(N(CCF)CCCl)cc1)C(=O)O (stereo not given)
T/C (dose: 13.0 mg/kg/injection, vehicle: saline, evaluated on day 20): 75 % of control
T/C [3]: 79 % of control
T/C [6]: 80 % of control
T/C (dose: 45.0 mg/kg/injection, vehicle: saline, evaluated on day 20): 31 % of control

O[C@H](CNCCCl)[C@@H](O)CNCCCl
T/C (dose: 3.75 mg/kg/injection, vehicle: saline, evaluated on day 20): 49 and 140 % of control
T/C (dose: 7.5 mg/kg/injection, vehicle: saline, evaluated on day 20): 64 and 86 % of control [5 of 6 alive]
T/C (dose: 15.0 mg/kg/injection, vehicle: saline, evaluated on day 20): 16 [4 of 6 alive] and 48 % of control
survivor count (dose: 30.0 mg/kg/injection, vehicle: carboxymethylcellulose (CMC)): 0 of 6
T/C [6]: 39 % of control [7 of 8 alive]
survivor count [5]: 1 of 6
survivor count (dose: 45.0 mg/kg/injection, vehicle: carboxymethylcellulose (CMC)): 0 of 6
survivor count (dose: 65.0 mg/kg/injection, vehicle: carboxymethylcellulose (CMC)): 0 of 6
survivor count (dose: 95.0 mg/kg/injection, vehicle: carboxymethylcellulose (CMC)): 0 of 6
